Test results taken from PubChem BioAssay AID256 (DTP/NCI, 2004).
The list shows only some results of the screen, not a fair sample: it gathers tests that were run many times, whatever their T/C, doses with no T/C, and many T/C values between a quarter and a half above the control. Further doses and runs are listed elsewhere. T/C gives the treated animals as a percentage of the vehicle group. Some entries give survivors of the animals treated and no T/C: the source files T/C as zero there, which appears to mark a toxic dose or a test without result, not a measured value. Some survivor counts are full or nearly so, which does not show that the dose was tolerated: the source hardly ever lists a survival T/C far under the control, and the zero likely stands for such cases as well. Counts of survivors are from the toxicity check (mostly the fifth day) where no day follows; animals may have died later. Schedules are NCI's codes, taken here to give the interval after Q, in days (D) or hours (H), and the number of doses after X. Some entries hold several experiments; their values stand side by side, smallest first. Where survival is the endpoint, the PubChem record calls one and a half times the control and up active, and a quarter to a half above the control has no call in these data; cut-offs in other NCI protocols can differ. Some T/C values are followed by the survivors on the day toxicity was checked, most often the fifth; where none is given, no animal had died by that day.

Tested on: CD2F1 mice, L1210 leukemia ip, survival T/C
Test: NCI In Vivo Anticancer Drug Screen. Data for tumor model L1210 Leukemia (intraperitoneal) in CD2F1 (CDF1) mice
Conditions: higher T/C = longer survival
Summary of the method: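 Implant tumor; dose compound or vehicle; measure endpoint in both groups; report treated divided by control.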

[1] = T/C endpoint: mean survival time, dose: 50.0 mg/kg/injection, schedule: Q01DX009 (ip), vehicle: saline
[2] = T/C endpoint: mean survival time, dose: 100.0 mg/kg/injection, schedule: Q01DX009 (ip), vehicle: saline
[3] = T/C endpoint: mean survival time, dose: 200.0 mg/kg/injection, schedule: Q01DX009 (ip), vehicle: saline
[4] = T/C endpoint: mean survival time, dose: 200.0 mg/kg/injection, schedule: Q04DX003 (ip), vehicle: saline
[5] = T/C endpoint: mean survival time, dose: 400.0 mg/kg/injection, schedule: Q01DX001 (ip), vehicle: saline
[6] = T/C endpoint: mean survival time, dose: 400.0 mg/kg/injection, schedule: Q04DX003 (ip), vehicle: saline with Tween-80
[7] = T/C endpoint: mean survival time, dose: 400.0 mg/kg/injection, schedule: Q01DX009 (ip), vehicle: saline with Tween-80
[8] = T/C endpoint: mean survival time, dose: 400.0 mg/kg/injection, schedule: Q04DX003 (ip), vehicle: saline
[9] = T/C endpoint: mean survival time, dose: 200.0 mg/kg/injection, schedule: Q01DX009 (ip), vehicle: other
[10] = T/C endpoint: median survival time, dose: 6.0 mg/kg/injection, schedule: Q01DX009 (ip), vehicle: saline + Tween-80 + alcohol

## CN(C)/C=N\c1ncnc2c1c(C#N)cn2C1OC(CO)C(O)C1O (stereo not given)
[1]
  survivor count: 6 of 6
[2]
  survivor count: 2 of 6
[3]
  survivor count: 0 of 6

## O=NN(CCCl)C(=O)Nc1ccccn1
T/C endpoint: mean survival time, dose: 200.0 mg/kg/injection, schedule: Q01DX001 (ip), vehicle: other
  survivor count: 0 of 6
T/C endpoint: mean survival time, dose: 400.0 mg/kg/injection, schedule: Q01DX001 (ip), vehicle: other
  survivor count: 0 of 6

## CN(C)C(=O)N/C=C/NC(=O)N(C)C
T/C endpoint: mean survival time, dose: 100.0 mg/kg/injection, schedule: Q04DX002 (ip), vehicle: saline with Tween-80
  survivor count: 1 of 3
T/C endpoint: mean survival time, dose: 200.0 mg/kg/injection, schedule: Q04DX002 (ip), vehicle: saline with Tween-80
  survivor count: 0 of 3
T/C endpoint: mean survival time, dose: 400.0 mg/kg/injection, schedule: Q04DX002 (ip), vehicle: saline with Tween-80
  survivor count: 0 of 3

## N#CCc1nc2ccccc2[nH]1
T/C endpoint: mean survival time, dose: 100.0 mg/kg/injection, schedule: Q01DX009 (ip), vehicle: Klucel (hydroxypropylcellulose) (HPC)
  survivor count: 2 of 6

## CN=C(NC)c1cccc(NC(=O)/C=C\c2ccc(/C=C/C(=O)Nc3cccc(C(=NC)NC)c3)cc2)c1
T/C endpoint: median survival time, dose: 10.0 mg/kg/injection, schedule: Q01DX009 (ip), vehicle: saline
  survivor count: 0 of 6
T/C endpoint: median survival time, dose: 20.0 mg/kg/injection, schedule: Q01DX009 (ip), vehicle: saline
  survivor count: 0 of 6

## COc1ccc(Cl)cc1Cn1ccnc1
T/C endpoint: mean survival time, dose: 200.0 mg/kg/injection, schedule: Q01DX001 (ip), vehicle: saline
  survivor count: 0 of 6
[3]
  survivor count: 0 of 3 and 0 of 6
[4]
  survivor count: 3 of 6
T/C endpoint: mean survival time, dose: 400.0 mg/kg/injection, schedule: Q04DX002 (ip), vehicle: saline
  survivor count: 0 of 3 and 0 of 6

## O=C(OCC1OC(n2nc(SCc3ccccc3)c(=O)[nH]c2=O)C(OC(=O)c2ccccc2)C1OC(=O)c1ccccc1)c1ccccc1 (stereo not given)
T/C endpoint: mean survival time, dose: 200.0 mg/kg/injection, schedule: Q01DX005 (ip), vehicle: distilled water + Tween-80
  survivor count: 6 of 6

## CC(=O)Oc1ccccc1C(CC(C)C)OC(C)=O (stereo not given)
[5]
  survivor count: 3 of 6

## C[n+]1cccc(/C=C/C(=O)Nc2ccccc2)c1
[6]
  survivor count: 0 of 6

## O=C(C[n+]1ccccc1)CC(O)(C(F)(F)F)C(F)(F)F
[7]
  survivor count: 3 of 6

## CCN(CC)c1ccc(N)cc1
T/C endpoint: mean survival time, dose: 100.0 mg/kg/injection, schedule: Q04DX003 (ip), vehicle: saline
  survivor count: 0 of 6
[4]
  survivor count: 0 of 6
[8]
  survivor count: 0 of 6

## COC(=O)NC1C(C)OC(OC2C/C=C(/C)C3C=CC4C(OC5CC(OC6CC(O)C(OC7CC(O)C(OC)C(C)O7)C(C)O6)C(O)C(C)O5)C(C)CC(C)C4C3(C)/C(O)=C3\C(=O)OC4(CC(C)C(CO)=CC4/C=C\2C)C3=O)CC1(C)[N+](=O)[O-] (stereo not given)
T/C endpoint: median survival time, dose: 200.0 mg/kg/injection, schedule: Q01DX009 (ip), vehicle: Klucel (hydroxypropylcellulose) (HPC)
  survivor count: 2 of 6

## NOc1ccc([N+](=O)[O-])cc1[N+](=O)[O-]
T/C endpoint: mean survival time, dose: 50.0 mg/kg/injection, schedule: Q01DX009 (ip), vehicle: saline with Tween-80
  survivor count: 2 of 6
T/C endpoint: mean survival time, dose: 100.0 mg/kg/injection, schedule: Q01DX009 (ip), vehicle: saline with Tween-80
  survivor count: 0 of 6

## COC(C(OC)N1CCOCC1)N1CCOCC1 (stereo not given)
[6]
  survivor count: 6 of 6

## Cc1ccc(/C=N/NC(=O)CNC(=O)Nc2cccc([N+](=O)[O-])c2)cc1
T/C endpoint: mean survival time, dose: 200.0 mg/kg/injection, schedule: Q01DX009 (ip), vehicle: saline with Tween-80
  survivor count: 3 of 3

## CC(=O)OCC1OC(n2ncc3c(Sc4c([N+](=O)[O-])ncn4C)ncnc32)C(OC(C)=O)C1OC(C)=O (stereo not given)
[9]
  survivor count: 1 of 6
T/C endpoint: mean survival time, dose: 400.0 mg/kg/injection, schedule: Q01DX009 (ip), vehicle: other
  survivor count: 1 of 6

## C=C(C)/C([O-])=N/[N+](C)(C)CC(O)CCCCCCCCCCCC (stereo not given)
[5]
  survivor count: 1 of 6 and 5 of 10
T/C endpoint: mean survival time, dose: 800.0 mg/kg/injection, schedule: Q01DX001 (ip), vehicle: saline
  survivor count: 0 of 6 and 4 of 10

## OCCOc1ccc(Cl)cc1
[7]
  survivor count: 0 of 6

## COc1cccc2c1C(=O)OC2=O
T/C endpoint: mean survival time, dose: 400.0 mg/kg/injection, schedule: Q01DX005 (ip), vehicle: Klucel (hydroxypropylcellulose) (HPC)
  survivor count: 1 of 5

## CN1CCC(CO)C1 (stereo not given)
T/C endpoint: mean survival time, dose: 400.0 mg/kg/injection, schedule: Q01DX009 (ip), vehicle: water
  survivor count: 1 of 6
[8]
  survivor count: 0 of 6

## C=CC(CN1CC1)OC(C)=O (stereo not given)
T/C endpoint: mean survival time, dose: 2.5 mg/kg/injection, schedule: Q01DX007 (ip), vehicle: saline
  T/C: 134 % of control
T/C endpoint: mean survival time, dose: 2.5 mg/kg/injection, schedule: Q01DX009 (ip), vehicle: saline
  T/C: 145 % of control
T/C endpoint: mean survival time, dose: 3.75 mg/kg/injection, schedule: Q01DX009 (ip), vehicle: saline
  T/C: 141 % of control
T/C endpoint: mean survival time, dose: 10.0 mg/kg/injection, schedule: Q01DX007 (ip), vehicle: saline
  T/C: 128 % of control
T/C endpoint: mean survival time, dose: 10.0 mg/kg/injection, schedule: Q01DX009 (ip), vehicle: saline
  T/C: 126 % of control
T/C endpoint: mean survival time, dose: 10.0 mg/kg/injection, schedule: Q03DX003 (ip), vehicle: saline
  T/C: 145 % of control
T/C endpoint: mean survival time, dose: 30.0 mg/kg/injection, schedule: Q01DX009 (ip), vehicle: saline
  survivor count: 2 of 6

## CC1=C[S+](c2ccccc2)c2cccc3cc4ccccc4c1c23 (stereo not given)
T/C endpoint: mean survival time, dose: 20.0 mg/kg/injection, schedule: Q01DX001 (ip), vehicle: saline with Tween-80
  survivor count: 1 of 6
T/C endpoint: mean survival time, dose: 100.0 mg/kg/injection, schedule: Q01DX001 (ip), vehicle: saline with Tween-80
  survivor count: 0 of 6
T/C endpoint: mean survival time, dose: 200.0 mg/kg/injection, schedule: Q01DX001 (ip), vehicle: saline with Tween-80
  survivor count: 0 of 6
T/C endpoint: mean survival time, dose: 400.0 mg/kg/injection, schedule: Q01DX001 (ip), vehicle: saline with Tween-80
  survivor count: 0 of 6

## CCOC(CN(N=O)c1ccccc1C(C)C)OCC
[7]
  survivor count: 3 of 6

## CC(C)C(N)C(=O)Nc1nncs1 (stereo not given)
[1]
  T/C: 134 % of control
[2]
  T/C: 134 % of control
T/C endpoint: median survival time, dose: 50.0 mg/kg/injection, schedule: Q01DX009 (ip), vehicle: saline
  T/C: 131 % of control
T/C endpoint: median survival time, dose: 100.0 mg/kg/injection, schedule: Q01DX009 (ip), vehicle: saline
  T/C: 134 % of control
T/C endpoint: median survival time, dose: 400.0 mg/kg/injection, schedule: Q01DX009 (ip), vehicle: saline
  T/C: 141 % of control

## O=C(CC(=O)c1ccccc1)c1ccccc1.O=C(CC(=O)c1ccccc1)c1ccccc1.[Cl][Sn][Cl]
[6]
  survivor count: 4 of 6

## COC(=O)[C@@]12OC[C@]34[C@H]([C@@H](O)[C@@H]1O)[C@@]1(C)CC(=O)C(OC(=O)CC(=O)OC5=C(C)[C@@H]6C[C@H]7OC(=O)[C@H](OC(=O)/C=C(\C)C(C)C)[C@H]8[C@]9(C(=O)OC)OC[C@]78[C@H]([C@@H](O)[C@@H]9O)[C@@]6(C)CC5=O)=C(C)[C@@H]1C[C@H]3OC(=O)[C@H](OC(=O)/C=C(\C)C(C)C)[C@@H]24
T/C endpoint: median survival time, dose: 3.0 mg/kg/injection, schedule: Q01DX009 (ip), vehicle: saline + Tween-80 + alcohol
  T/C: 128 and 136 % of control
[10]
  T/C: 142 % of control [4 of 6 alive]
  survivor count: 0 of 6

## NC(=O)N(CCCl)N=O
T/C endpoint: mean survival time, dose: 4.0 mg/kg/injection, schedule: Q03DX003 (ip), vehicle: saline
  T/C: 136 % of control

## COC(=O)/C=N/NS(=O)(=O)c1cccc(N)c1
T/C endpoint: mean survival time, dose: 400.0 mg/kg/injection, schedule: Q04DX003 (ip), vehicle: water
  survivor count: 1 of 6

## NCCN.[Ni+2].[O-]c1ccccc1[O-].[O-]c1ccccc1[O-]
T/C endpoint: mean survival time, dose: 12.5 mg/kg/injection, schedule: Q01DX009 (ip), vehicle: other
  survivor count: 3 of 6
T/C endpoint: mean survival time, dose: 25.0 mg/kg/injection, schedule: Q01DX009 (ip), vehicle: other
  survivor count: 1 of 6
T/C endpoint: mean survival time, dose: 50.0 mg/kg/injection, schedule: Q01DX009 (ip), vehicle: other
  survivor count: 0 of 6
T/C endpoint: mean survival time, dose: 100.0 mg/kg/injection, schedule: Q01DX009 (ip), vehicle: other
  survivor count: 0 of 6
[9]
  survivor count: 0 of 6

## O=C(O)c1cc2ccccc2oc1=O
T/C endpoint: mean survival time, dose: 100.0 mg/kg/injection, schedule: Q04DX003 (ip), vehicle: saline with Tween-80
  survivor count: 0 of 3

## CCNC(C)(C)C(SSSC(c1ccc(Cl)cc1)C(C)(C)NCC)c1ccc(Cl)cc1 (stereo not given)
[8]
  survivor count: 1 of 6
